Publication doi:10.1101/2024.09.04.610270
Residue numbers refer to the chain shown, from its start. Where two headings read alike, the source gives them in different places. Results are given in words; binding and its absence hold for the method and conditions named. Some binding calls cover weakened binding; strength is not graded here.

How the values were obtained:
Assay in all cases: two-hybrid
[1] = target: T1, arginine/serine-rich zinc knuckle-containing protein 33 (RS2Z33), native full-length, yeast two-hybrid bait (Arabidopsis thaliana) (UniProt Q8VYA5)
T1 sequence: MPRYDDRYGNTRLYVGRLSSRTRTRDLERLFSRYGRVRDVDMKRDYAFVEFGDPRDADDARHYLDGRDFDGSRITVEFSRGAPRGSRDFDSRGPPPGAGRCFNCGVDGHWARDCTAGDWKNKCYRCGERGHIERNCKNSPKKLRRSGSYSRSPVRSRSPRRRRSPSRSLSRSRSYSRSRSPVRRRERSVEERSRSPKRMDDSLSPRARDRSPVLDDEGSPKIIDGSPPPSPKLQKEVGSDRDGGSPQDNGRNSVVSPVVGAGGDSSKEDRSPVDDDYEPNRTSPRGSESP

[2] = target: T2, arginine/serine-rich zinc knuckle-containing protein 32 (RS2Z32), native full-length, yeast two-hybrid bait (Arabidopsis thaliana) (UniProt Q9FYB7)
T2 sequence: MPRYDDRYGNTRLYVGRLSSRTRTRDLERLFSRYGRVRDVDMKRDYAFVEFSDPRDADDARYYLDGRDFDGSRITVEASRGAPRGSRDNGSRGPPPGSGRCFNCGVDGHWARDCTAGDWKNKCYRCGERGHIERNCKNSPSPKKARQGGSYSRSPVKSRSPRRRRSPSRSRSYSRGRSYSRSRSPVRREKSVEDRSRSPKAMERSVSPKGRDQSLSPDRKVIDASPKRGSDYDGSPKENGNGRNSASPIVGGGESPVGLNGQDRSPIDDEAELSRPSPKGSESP

[3] = target: T1, arginine/serine-rich zinc knuckle-containing protein 33 (RS2Z33), native full-length, yeast two-hybrid bait (Arabidopsis thaliana); remark: listed apart in the source
[4] = target: T3, RS2Z33ΔZnKs+RS+SP (the sole RRM of RS2Z33) (Arabidopsis thaliana) (UniProt Q8VYA5)
T3 sequence: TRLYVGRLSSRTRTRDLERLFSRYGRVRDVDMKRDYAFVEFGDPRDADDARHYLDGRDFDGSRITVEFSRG

[5] = target: T1, arginine/serine-rich zinc knuckle-containing protein 33 (RS2Z33), native full-length, yeast two-hybrid bait (Arabidopsis thaliana); remark: listed apart in the source
[6] = target: T4, RS2Z32ΔZnKs+RS+SP (the sole RRM of RS2Z32) (Arabidopsis thaliana) (UniProt Q9FYB7)
T4 sequence: T3 sequence with G42S, H52Y, F68A

[7] = target: T5, RS2Z33mutRRM (Arabidopsis thaliana) (UniProt Q8VYA5)
T5 sequence: T1 sequence with Y14A, Y46A, F48A

[8] = target: T6, RS2Z32mutRRM (Arabidopsis thaliana) (UniProt Q9FYB7)
T6 sequence: T2 sequence with Y14A, Y46A, F48A

[9] = target: T2, arginine/serine-rich zinc knuckle-containing protein 32 (RS2Z32), native full-length, yeast two-hybrid bait (Arabidopsis thaliana); remark: listed apart in the source

binding [1]: binds | binding [2]: binds | binding [3]: binds | binding [4]: binds | binding [5]: binds | binding [6]: binds | binding [7]: binds | binding [8]: binds | binding [9]: binds
B1: SR45.1 (protein, UniProt Q9SEE9-1 1-414)
chain: MAKPSRGRRSPSVSGSSSRSSSRSRSGSSPSRSISRSRSRSRSLSSSSSPSRSVSSGSRSPPRRGKSPAGPARRGRSPPPPPSKGASSPSKKAVQESLVLHVDSLSRNVNEAHLKEIFGNFGEVIHVEIAMDRAVNLPRGHGYVEFKARADAEKAQLYMDGAQIDGKVVKATFTLPPRQKVSSPPKPVSAAPKRDAPKSDNAAADAEKDGGPRRPRETSPQRKTGLSPRRRSPLPRRGLSPRRRSPDSPHRRRPGSPIRRRGDTPPRRRPASPSRGRSPSSPPPRRYRSPPRGSPRRIRGSPVRRRSPLPLRRRSPPPRRLRSPPRRSPIRRRSRSPIRRPGRSRSSSISPRKGRGPAGRRGRSSSYSSSPSPRRIPRKISRSRSPKRPLRGKRSSSNSSSSSSPPPPPPPRKT
